# Results: the supplement of paper PMC4604168 (melanoma cell lines)
# Some of the results follow. Repeats are few or missing, and single values can be far off.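 The apoptosis fraction was the count of cleaved-PARP antibody-stained nuclei relative to all DNA-stained nuclei, imaged in 1,536-well plates. Screening doses were set so most cells survived, and baseline and induced cleaved-PARP levels vary greatly across cell lines.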
# System: SkMel2
# Assay: cleaved PARP positive nuclei fraction relative to DMSO control; melanoma cells; higher = more apoptosis
# Conditions: library dose: low library concentration; 72 h
row,SMILES,cleaved PARP positive nuclei fraction [%]
1,"O=C(O)[C@@H]1[O][Sb](=[O])([O][Sb]2(=[O])[O][C@H]([C@H](O)CO)[C@H](O)[C@H](C(=O)O)[O]2)[O][C@H]([C@H](O)CO)[C@@H]1O (stereo partly specified) [stibogluconate] + Cc1ccc(NC(=O)c2cccc(N(C)C)c2)cc1NC(=O)c1ccc(O)cc1 [ZM336372] (first compound 2 µM, partner dose 2 µM)",58.6
2,"CN1CCN(c2ccc3nc(-c4c(N)c5c(F)cccc5[nH]c4=O)[nH]c3c2)CC1 [Dovitinib] + COc1cc2c(Oc3ccc4[nH]c(C)cc4c3F)ncnc2cc1OCCCN1CCCC1 [cediranib] (first compound 0.1 µM, partner dose 0.4 µM)",46.6
3,"CC(C)C[C@H](NC(=O)[C@H](Cc1ccccc1)NC(=O)c1cnccn1)B(O)O [Bortezomib] + CC(C)CCN1c2nc(Nc3cc(F)c(O)c(F)c3)ncc2N(C)C(=O)C1C [BID1870] (first compound 0.001 µM, partner dose 0.2 µM)",77
4,"O=C(O)c1ccc2c(c1)nc(Nc1cccc(Cl)c1)c1ccncc12 + NCC(=O)Nc1ccc(-n2nc(C(F)(F)F)cc2-c2ccc3c(ccc4ccccc43)c2)cc1 [OSU03012] (first compound 0.4 µM, partner dose 1 µM)",167
5,"Nc1ncn([C@H]2C[C@H](O)[C@@H](CO)O2)c(=O)n1 [decitabine] + Cn1cc(/C=C2\C(=O)Nc3cccnc32)c2ccccc21 [GW441756] (first compound 0.1 µM, partner dose 0.4 µM)",29.3
6,"CNC(=O)c1cc(Oc2ccc(NC(=O)Nc3ccc(Cl)c(C(F)(F)F)c3)cc2)ccn1 [sorafenib] + Oc1nc(-c2ccc(C(F)(F)F)cc2)nc2c1CSCC2 [XAV939] (first compound 0.4 µM, partner dose 2 µM)",95.8
7,"O=C(O)[C@@H]1[O][Sb](=[O])([O][Sb]2(=[O])[O][C@H]([C@H](O)CO)[C@H](O)[C@H](C(=O)O)[O]2)[O][C@H]([C@H](O)CO)[C@@H]1O (stereo partly specified) [stibogluconate] + C=CCn1c(=O)c2cnc(Nc3ccc(N4CCN(C)CC4)cc3)nc2n1-c1cccc(C(C)(C)O)n1 [MK1775] (first compound 2 µM, partner dose 0.02 µM)",121
8,"CC(C)C[C@H](NC(=O)[C@H](Cc1ccccc1)NC(=O)c1cnccn1)B(O)O [Bortezomib] + O=c1cc(-c2cccc3c2Sc2ccccc2S3)oc(N2CCOCC2)c1 [KU55933] (first compound 0.001 µM, partner dose 1 µM)",45
9,"Cn1c(=O)n(-c2ccc(C(C)(C)C#N)cc2)c2c3cc(-c4cnc5ccccc5c4)ccc3ncc21 + OCCn1cc(-c2cnc3nnn(Cc4ccc5ncccc5c4)c3n2)cn1 [PF04217903] (first compound 0.004 µM, partner dose 1 µM)",115
10,"Cn1c(=O)n(-c2ccc(C(C)(C)C#N)cc2)c2c3cc(-c4cnc5ccccc5c4)ccc3ncc21 + c1cc(-c2cnn3cc(-c4ccc(OCCN5CCCCC5)cc4)cnc23)ccn1 [Dorsomorphin] (first compound 0.004 µM, partner dose 0.4 µM)",13
11,"O=C(O)c1ccc2c(c1)nc(Nc1cccc(Cl)c1)c1ccncc12 + COc1ccc(-c2ccc3c(N4CCOCC4)nc(N4C[C@@H](C)O[C@@H](C)C4)nc3n2)cc1CO [KU0063794] (first compound 0.4 µM, partner dose 0.02 µM)",55.7

# A second format for some results above.
row | SMILES | cleaved PARP positive nuclei fraction [%]
5 | Nc1ncn([C@H]2C[C@H](O)[C@@H](CO)O2)c(=O)n1 [decitabine] + Cn1cc(/C=C2\C(=O)Nc3cccnc32)c2ccccc21 [GW441756] (first compound 0.1 µM, partner dose 0.4 µM) | 29.3
6 | CNC(=O)c1cc(Oc2ccc(NC(=O)Nc3ccc(Cl)c(C(F)(F)F)c3)cc2)ccn1 [sorafenib] + Oc1nc(-c2ccc(C(F)(F)F)cc2)nc2c1CSCC2 [XAV939] (first compound 0.4 µM, partner dose 2 µM) | 95.8
